Measurements from PubChem BioAssay AID540275 (National Center for Advancing Translational Sciences (NCATS), 2011).
Hit rate of the full screen: of about 320,000 compounds, about 620 (0.19%) were called active. The shares of active, inactive and inconclusive entries below differ from those in the screen. Rule as the data show it: active = activation above about 80%; inconclusive = between about 30% and that limit; inactive = weaker than that.

Protein sequences, listed by entry. Tags and fused reporters are not part of them.
UniProt Q8NER1, whole entry, looked up: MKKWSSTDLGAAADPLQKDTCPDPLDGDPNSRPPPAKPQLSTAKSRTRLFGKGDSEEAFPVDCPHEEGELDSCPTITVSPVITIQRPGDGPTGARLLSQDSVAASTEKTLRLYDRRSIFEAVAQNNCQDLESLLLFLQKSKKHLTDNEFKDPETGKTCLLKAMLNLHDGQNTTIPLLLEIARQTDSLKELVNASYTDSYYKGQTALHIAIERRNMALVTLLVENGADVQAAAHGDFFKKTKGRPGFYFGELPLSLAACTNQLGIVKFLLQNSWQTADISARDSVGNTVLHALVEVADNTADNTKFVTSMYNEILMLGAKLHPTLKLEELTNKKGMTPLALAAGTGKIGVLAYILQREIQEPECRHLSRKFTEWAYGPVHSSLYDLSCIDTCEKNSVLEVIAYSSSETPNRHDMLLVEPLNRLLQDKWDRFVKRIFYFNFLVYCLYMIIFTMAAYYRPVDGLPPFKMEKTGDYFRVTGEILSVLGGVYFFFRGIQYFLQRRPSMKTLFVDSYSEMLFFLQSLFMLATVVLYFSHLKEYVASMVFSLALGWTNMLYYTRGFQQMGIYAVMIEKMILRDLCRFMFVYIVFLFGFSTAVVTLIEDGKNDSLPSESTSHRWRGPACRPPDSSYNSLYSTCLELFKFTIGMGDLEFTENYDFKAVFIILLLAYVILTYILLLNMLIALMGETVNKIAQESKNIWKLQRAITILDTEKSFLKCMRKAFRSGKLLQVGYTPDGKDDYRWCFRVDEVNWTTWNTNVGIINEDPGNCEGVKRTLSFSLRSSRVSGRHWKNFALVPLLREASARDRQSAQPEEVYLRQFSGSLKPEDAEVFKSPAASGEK

target: Transient receptor potential cation channel subfamily V member 1 (Homo sapiens) (UniProt Q8NER1); assay: HTS Assay for Compounds that Act as Agonists of the Vanilloid Receptor 1; conditions: TRPV1-expressing cells, Fluo-8 calcium influx, agonist mode; at 8.33 µM, active compounds read high; also: 0% is about no effect
Procedure, shortened: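 TRPV1-expressing cells were cultured overnight at 35.5C and loaded with Fluo-8 calcium dye for 40 to 90 min at room temperature. After a 10 s baseline, compound was added and calcium influx was read kinetically for 3 min (ex 480/em 520 nm).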

Compound | activation
Cc1c(OCC(=O)NCc2ccncc2)ccc2c3c(c(=O)oc12)CCCC3 | inconclusive: 73.1%
S=C(Nc1ccc(Br)cc1Cl)N1CCCC1 | inconclusive: 34.6%
O=C(NCC1CCCO1)c1cc2cc(Cl)ccc2[nH]1 (stereo unspecified) | inconclusive: 37.6%
CCOc1ccc(C(C)NC(=O)Nc2ccccc2C(=O)OC)cc1 (stereo unspecified) | inconclusive: 32%
CC(C)c1onc(C(=O)NCc2ccc(Cl)cc2)c1[N+](=O)[O-] | inconclusive: 42.7%
Cc1cc(/C=N/NC(=O)c2ccncc2)c(C)n1-c1ccccc1 | inconclusive: 45.5%
COc1ccc(OCc2cc(C(=O)N3CCSCC3)no2)c(Cl)c1 | inconclusive: 73.7%
O=C(COc1ccc(C(=O)c2ccccc2)cc1)NC1CCCCC1 | inconclusive: 34.3%
Cc1noc(C)c1CSCC(=O)N1CCN(c2ccc(F)cc2)CC1 | inactive: 2.01%
O=C(NCC(=O)N1CCC(Cc2ccccc2)CC1)c1ccc(Cl)cc1 | inconclusive: 32.9%
C/C(=N\NC(=O)COc1ccc(C(C)(C)C)cc1)c1ccc(-n2ccnc2)cc1 | inconclusive: 37.5%
CCOc1ccc(C2C=C(c3ccccc3)Nc3nnnn32)cc1 (stereo unspecified) | inactive: 16.6%
CCc1nc(C)ccc1OC(=O)C12CC3CC(CC(C3)C1)C2 | inconclusive: 43.1%
COc1ccccc1NC(=O)/C=C/c1ccc2c(c1)OCO2 | inconclusive: 31.1%
CCCn1cc(S(=O)(=O)c2ccccc2)c(=O)c2cc(OCC)ccc21 | inconclusive: 37.5%
Cc1ccc(CNC(=O)C2CC(=O)N(C3CCCCCCC3)C2)cc1 (stereo unspecified) | inconclusive: 45%
C/C(=N\NC(=S)NC1CCCCC1)c1ccc(C)o1 | inconclusive: 38.6%
CCC(=O)Nn1cnc2c(c1=O)C1(CCCCC1)Cc1ccccc1-2 | inconclusive: 32.8%
O=C(Nc1nc2cc3c(cc2s1)OCCO3)c1ccncc1 | inconclusive: 56.7%
Cc1ccc2c(CC(=O)Nc3nc(C)cs3)coc2c1 | inactive: 6.16%
C=CCn1c(SCC(=O)N2CCOCC2)nc2ccccc2c1=O | inconclusive: 44.3%
COc1cc2c(c(OC)c1OC)-c1c(cc(OC)c(OC)c1OC)C[C@H](C)[C@H](C)C2 | inconclusive: 37.4%
COc1ccc(C2=NOC(Cn3nc(C(=O)NCc4ccc(C)cc4)cc3-c3ccccc3)C2)cc1 (stereo unspecified) | inactive: 3.39%

Compound | activation
Cc1ccc(Cn2c(=O)sc3ccccc3c2=O)cc1 | inconclusive: 39.1%
CC(C)(C)c1ccc(-c2noc(C(=O)NN)n2)cc1 | inactive: 26.5%
Cc1ccc(NC(=O)NCCCc2ccccc2)cc1 | inconclusive: 70.2%
Cc1ccc(Nc2cc(-n3nc(C)cc3C)ncn2)c(C)c1 | inconclusive: 42%
Cc1cccc(NC(=O)c2cccc(S(=O)(=O)N3CCc4ccccc4C3)c2)n1 | inconclusive: 35%
O=C(COC(=O)c1ccccc1Cl)NC1CCCCCCC1 | inconclusive: 36.5%
CC(C)c1ccc(NC(=O)C2CC2c2ccccc2)cc1 (stereo unspecified) | inconclusive: 47.6%
O=C1NC(=Nc2ccccc2Cl)S/C1=C\c1cc([N+](=O)[O-])ccc1O | inactive: 12.8%
COc1cccc(C(=O)N[C@@H](CCSC)c2nc3ccccc3[nH]2)c1 | inconclusive: 32.7%
O=C(NCCc1ccc(F)cc1)c1cccs1 | inconclusive: 42.3%
COCCn1c(COc2ccc(C)cc2)nc2ccccc21 | inconclusive: 44.7%
Cc1cc(C)c(S(=O)(=O)c2ccccc2C)c(OCCO)n1 | inactive: 4.9%
COc1ccc(NC(=O)c2ccco2)cc1NC(=O)c1cc2ccccc2o1 | inconclusive: 50.9%
CC(C)n1c(N2CCN(C(=O)Nc3ccc(Cl)cc3)CC2)nc2ccccc21 | active: 82.2%
COc1ccc(NC(=O)c2noc3c2CCCCC3)cc1 | inconclusive: 52.2%
Cc1ccc(CNc2ccc(N3CCOCC3)cc2)cc1 | inactive: -0.2%
Cc1ccccc1C(=O)N1CCC(C(=O)N(CC(C)C)c2c(N)n(Cc3ccccc3)c(=O)[nH]c2=O)CC1 | inactive: 3.17%
CCOC(=O)C1=C(N)N2C(=O)C(C)SC2=C(C(=O)OCC)C1c1ccc(O)cc1 (stereo unspecified) | inconclusive: 51.7%
CCc1ccccc1N1C(=O)C(Cl)=C(N2CCOCC2)C1=O | inactive: 4.89%
CC(C)(C)C1CCc2onc(C(=O)Nc3ccc(F)cc3F)c2C1 (stereo unspecified) | inconclusive: 42.7%
CCCCCc1ccc(-c2ccc(OC)cc2)nc1 | inconclusive: 32.7%
COC(=O)c1sc(N)c(C(=O)OC)c1COC(=O)c1c(C)noc1C | inactive: 26.9%
CCCC1C(=O)Nc2ccccc2N1C(=O)c1cccc(C)c1 (stereo unspecified) | inconclusive: 58.6%

Compound | activation
COc1ccccc1NC(=O)C/C(C)=N/NC(=O)c1ccccn1 | inconclusive: 32.5%
O=C(O/N=C1\CCS(=O)(=O)c2sccc21)c1ccccc1 | inconclusive: 50.7%
C=CCNC(=O)c1ccc(-n2cccc2)cc1 | inconclusive: 43.4%
FC(F)(F)c1ccncc1-c1nnc(C2CCCCC2)o1 | inactive: 17.5%
CCc1cc(C(c2ccc(F)cc2)N2CCOCC2)c(NC(=O)c2ccccc2)s1 (stereo unspecified) | inconclusive: 34.3%
COc1ccc(-c2nnc(SCc3ccccn3)n2C)cc1 | inactive: -0.0322%
CC1CCN(c2ccc(C(=O)NCCc3ccccc3)cn2)CC1 | inconclusive: 38%
COc1cccc(C(=O)Nc2ccc(NC(=O)c3ccco3)c(Cl)c2)c1 | inactive: -5.84%
CC(C)n1c(NCc2ccc(Cl)cc2)nc2ccccc21 | inactive: 2.04%
O=C(Nc1nc2ccccc2[nH]1)c1ccc(F)c(S(=O)(=O)N2CCOCC2)c1 | inconclusive: 59.9%
O=C(Cc1n[nH]c(=O)c2ccccc12)NCc1ccc(Cl)cc1 | inconclusive: 55.7%
Cc1cc(OCC(=O)OC(C)C(=O)Nc2ccc(N3CCOCC3)cc2)ccc1Cl (stereo unspecified) | inconclusive: 45.7%
O=C(Nc1cccc(-n2cnnn2)c1)C1CCCN(Cc2cccc(C(F)(F)F)c2)C1 (stereo unspecified) | inconclusive: 52.5%
Cc1c(C(=O)N2CCOCC2)oc2ccc(Br)cc12 | inconclusive: 38.8%
O=C(NC(=S)NCC1CCCO1)c1ccco1 (stereo unspecified) | inactive: 1.44%
CCC(=O)N1CCCC(C(=O)c2ccc(-c3ccccc3)cc2)C1 (stereo unspecified) | inconclusive: 31.8%
N#Cc1c(SCC(N)=O)nsc1SCc1ccccc1Cl | inconclusive: 32.2%
CC(=O)c1ccc(N2CCN(C(=O)Nc3ccc(C)cc3)CC2)cc1 | active: 93.5%
CS(=O)(=O)c1ccc(Cl)c(NC(=O)COC(=O)C23CC4CC(CC(C4)C2)C3)c1 | inconclusive: 31.2%
Nc1nc2cc(S(=O)(=O)NC3=NCCCCC3)ccc2s1 | inactive: -1.84%
O=C(CCNc1ccc(F)cc1)c1cccc([N+](=O)[O-])c1 | inactive: 2.56%
O=C(CCCc1ccccc1)NCCCc1ccccc1 | inconclusive: 64.9%
Cc1nn(-c2ccccc2)c(C)c1C(=O)OCC(=O)Nc1ccc2c(c1)OCO2 | inconclusive: 35.1%

Compound | activation
CCOc1ccc2nc(N(CCN(C)C)C(=O)/C=C/c3cccs3)sc2c1 | inactive: 0.195%
CCCCOC(=O)c1ccc(NC(=O)C(=O)NCc2ccncc2)cc1 | inconclusive: 33.4%
CC1(C)C(C=C(Cl)Cl)C1C(=O)N1CCN(c2ccccc2)CC1 (stereo unspecified) | inconclusive: 45.9%
O=C(NCCc1ccc([N+](=O)[O-])cc1)c1ccccc1 | inconclusive: 34%
CC1CCC(N2CC(=O)N(Cc3ccc4c(c3)OCO4)C(c3ccc(F)cc3)C2=O)CC1 (stereo unspecified) | inconclusive: 43.7%
COc1ccc(/C=C/C(=O)NCc2c(C)nn(C)c2C)cc1COc1ccc(Br)cc1 | inconclusive: 54.5%
CC(C)n1ncc2c(C(=O)Nc3ccc(S(C)(=O)=O)cc3)cc(C3CC3)nc21 | inconclusive: 45.2%
CCc1cccc(C)c1NC(=O)C1CC(=O)N(C2CCCC2)C1 (stereo unspecified) | inactive: -0.572%
CCCCN(C)CCC(=O)Nc1ccc2c(c1)CCC2 | inconclusive: 51.8%
COC(=O)/C=C1\S/C(=N/NC(=O)c2ccccc2)NC1=O | inactive: -1.23%
O=C(CNS(=O)(=O)c1ccc(Cl)c(C(F)(F)F)c1)NC1CCCCCC1 | inconclusive: 35.1%
CCN(CC)CCNC(=O)c1ccc(NC(=O)c2ccc(Cl)c(S(=O)(=O)N3CCCCCC3)c2)cc1 | inconclusive: 39.3%
O=C(CCNS(=O)(=O)c1ccc(Br)cc1)NC1CCC(O)CC1 (stereo unspecified) | inactive: 1.56%
O=C(Nc1ccc(S(=O)(=O)N2CCCCC2)cc1)c1ccccc1Cl | inconclusive: 31.6%
COc1ccc(C(C(=O)NC2CCCC2)N(Cc2ccccc2)C(=O)c2nsc(Cl)c2Cl)cc1 (stereo unspecified) | inconclusive: 62.4%
Cc1ccccc1Cn1c(CN2CCc3ccccc3C2)nc2c1c(=O)n(C)c(=O)n2C | inactive: 1.71%
O=C(c1cccc(OC2CCN(Cc3ccc(F)cc3Cl)CC2)c1)N1CCCC1 | inconclusive: 31.4%
O=C(NCC1CCCCC1)c1cc(S(=O)(=O)N2CCCCC2)ccc1Cl | inconclusive: 38%
CCn1c(=N)c(C(=O)OC)cc2c(=O)n3ccccc3nc21 | inactive: -0.283%
O=C(CCc1ccccc1)Nc1nc2n(n1)C(c1ccc(Cl)cc1)CC(=O)N2 (stereo unspecified) | inactive: 2.5%
CCCNC(=O)c1csc(Nc2cccc3ccccc23)n1 | inconclusive: 49.9%
CC1N(C)c2cc(NC(=O)c3ccco3)c(P(=O)(Nc3ccc([N+](=O)[O-])cc3)N3CCOCC3)cc2C1(C)C (stereo unspecified) | inconclusive: 42.5%
